# Primary screen of a compound library

Protein sequences, listed by entry. Tags and fused reporters are not part of them. Residues count along the entry.
UniProt P9WNZ1, whole entry: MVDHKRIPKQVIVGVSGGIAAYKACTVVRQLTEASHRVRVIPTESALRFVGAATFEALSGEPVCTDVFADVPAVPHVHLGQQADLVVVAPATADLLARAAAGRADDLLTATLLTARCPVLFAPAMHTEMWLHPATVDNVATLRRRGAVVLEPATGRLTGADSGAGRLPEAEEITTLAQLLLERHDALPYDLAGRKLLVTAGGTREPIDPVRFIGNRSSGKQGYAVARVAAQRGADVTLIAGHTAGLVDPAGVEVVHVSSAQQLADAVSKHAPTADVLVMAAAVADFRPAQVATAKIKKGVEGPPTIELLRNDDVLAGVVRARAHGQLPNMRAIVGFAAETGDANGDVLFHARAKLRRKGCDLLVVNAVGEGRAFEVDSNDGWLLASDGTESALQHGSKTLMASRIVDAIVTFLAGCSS
UniProt Q8IDJ8, 1-583: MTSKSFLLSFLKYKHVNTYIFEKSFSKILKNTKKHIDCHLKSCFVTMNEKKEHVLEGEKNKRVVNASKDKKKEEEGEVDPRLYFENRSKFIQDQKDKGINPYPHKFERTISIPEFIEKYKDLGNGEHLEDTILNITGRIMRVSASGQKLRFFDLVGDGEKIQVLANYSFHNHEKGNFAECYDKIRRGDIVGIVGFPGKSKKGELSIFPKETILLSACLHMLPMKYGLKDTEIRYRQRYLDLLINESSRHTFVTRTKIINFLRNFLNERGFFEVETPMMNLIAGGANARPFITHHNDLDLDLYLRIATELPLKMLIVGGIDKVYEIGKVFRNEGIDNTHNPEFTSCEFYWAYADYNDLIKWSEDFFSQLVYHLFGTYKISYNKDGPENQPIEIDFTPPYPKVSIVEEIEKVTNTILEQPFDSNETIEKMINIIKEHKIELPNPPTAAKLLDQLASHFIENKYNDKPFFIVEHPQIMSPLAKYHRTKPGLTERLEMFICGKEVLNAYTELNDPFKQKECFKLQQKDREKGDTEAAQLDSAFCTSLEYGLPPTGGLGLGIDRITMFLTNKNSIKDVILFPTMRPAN
UniProt P9WFT3, whole entry: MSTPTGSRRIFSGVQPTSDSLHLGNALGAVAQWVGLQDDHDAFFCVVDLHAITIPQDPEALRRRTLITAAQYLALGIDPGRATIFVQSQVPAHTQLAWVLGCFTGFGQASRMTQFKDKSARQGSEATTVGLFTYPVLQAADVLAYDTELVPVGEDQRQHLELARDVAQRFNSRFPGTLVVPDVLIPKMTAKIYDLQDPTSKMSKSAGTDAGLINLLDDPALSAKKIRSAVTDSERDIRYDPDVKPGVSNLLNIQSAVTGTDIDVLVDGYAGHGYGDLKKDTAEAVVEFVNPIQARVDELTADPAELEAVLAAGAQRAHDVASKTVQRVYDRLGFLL
UniProt I6X8D2, whole entry: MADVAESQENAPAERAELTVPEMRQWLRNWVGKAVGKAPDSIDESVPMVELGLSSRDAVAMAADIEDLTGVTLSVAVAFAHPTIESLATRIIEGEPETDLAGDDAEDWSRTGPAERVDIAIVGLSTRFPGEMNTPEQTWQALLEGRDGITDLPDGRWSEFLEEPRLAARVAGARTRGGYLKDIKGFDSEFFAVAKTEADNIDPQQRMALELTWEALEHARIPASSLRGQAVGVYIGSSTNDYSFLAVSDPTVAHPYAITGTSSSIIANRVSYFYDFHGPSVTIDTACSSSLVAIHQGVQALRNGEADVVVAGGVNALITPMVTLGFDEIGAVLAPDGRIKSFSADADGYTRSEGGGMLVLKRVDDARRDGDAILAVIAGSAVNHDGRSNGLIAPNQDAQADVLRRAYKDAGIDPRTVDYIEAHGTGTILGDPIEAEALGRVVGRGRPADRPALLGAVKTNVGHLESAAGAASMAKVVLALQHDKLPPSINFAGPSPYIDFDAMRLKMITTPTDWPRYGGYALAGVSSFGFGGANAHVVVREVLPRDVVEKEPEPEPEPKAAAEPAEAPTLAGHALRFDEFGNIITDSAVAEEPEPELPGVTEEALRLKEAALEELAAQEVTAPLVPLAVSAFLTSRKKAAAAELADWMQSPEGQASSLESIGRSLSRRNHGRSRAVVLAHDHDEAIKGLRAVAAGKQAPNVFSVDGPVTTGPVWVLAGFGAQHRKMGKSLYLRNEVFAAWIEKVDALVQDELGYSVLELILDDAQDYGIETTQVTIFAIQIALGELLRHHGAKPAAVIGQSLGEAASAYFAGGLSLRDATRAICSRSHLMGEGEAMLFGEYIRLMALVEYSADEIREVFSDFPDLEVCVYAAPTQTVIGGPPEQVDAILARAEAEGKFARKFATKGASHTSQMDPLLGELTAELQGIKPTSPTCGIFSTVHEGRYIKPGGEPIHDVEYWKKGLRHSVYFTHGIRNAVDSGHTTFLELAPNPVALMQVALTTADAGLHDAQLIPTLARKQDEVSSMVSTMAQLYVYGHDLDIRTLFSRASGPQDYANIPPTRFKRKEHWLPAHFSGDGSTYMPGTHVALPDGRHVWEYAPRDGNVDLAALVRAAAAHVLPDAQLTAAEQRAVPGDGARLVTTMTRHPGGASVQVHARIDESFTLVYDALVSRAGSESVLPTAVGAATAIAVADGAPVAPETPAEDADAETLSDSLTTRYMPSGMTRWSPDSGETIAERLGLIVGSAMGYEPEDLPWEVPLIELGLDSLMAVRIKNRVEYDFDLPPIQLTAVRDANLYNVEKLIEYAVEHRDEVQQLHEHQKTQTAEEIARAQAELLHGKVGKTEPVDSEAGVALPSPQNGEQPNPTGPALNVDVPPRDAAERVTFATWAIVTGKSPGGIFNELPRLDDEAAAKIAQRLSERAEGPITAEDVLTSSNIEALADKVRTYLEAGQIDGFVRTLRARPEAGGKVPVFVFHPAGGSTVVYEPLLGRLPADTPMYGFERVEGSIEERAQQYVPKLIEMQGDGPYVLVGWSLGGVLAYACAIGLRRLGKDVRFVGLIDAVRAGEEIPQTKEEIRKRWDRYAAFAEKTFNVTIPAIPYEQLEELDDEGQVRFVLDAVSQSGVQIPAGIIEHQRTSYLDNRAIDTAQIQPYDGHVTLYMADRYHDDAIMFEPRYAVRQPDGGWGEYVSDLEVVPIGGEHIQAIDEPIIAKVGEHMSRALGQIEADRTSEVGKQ

Measurements from “University of Dundee, Small-Polar-MMV Screening Library” (2021), ChEMBL document CHEMBL3988442.

CoaBC: 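Enzyme assay of CoaBC with a phosphate dye (Biomol Green) read at 650 nm. Target: Coenzyme A biosynthesis protein CoaBC, Mycobacterium tuberculosis (UniProt P9WNZ1). Tested at 30 µM. Higher reads as stronger inhibition, judged from the few compounds that gave an IC50. Most strong results did not repeat in a second test. About 67,000 compounds were tested under these conditions; 0.06% (about 40) showed 50% or more at least once.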
PfKRS1: 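Lysine-tRNA ligase, Plasmodium falciparum 3D7 (UniProt Q8IDJ8). Enzyme assay of the cytosolic lysyl-tRNA synthetase in 384-well plates, read by luminescence. Tested at 30 µM. Direction is inferred from only a few compounds that gave an IC50; most scored high, so higher reads as stronger inhibition. About 69,000 compounds were tested under these conditions; 0.071% (about 49) showed 50% or more at least once.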
Toxoplasma: 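Assay of Toxoplasma gondii numbers, read through their beta-galactosidase reporter with a colour substrate. Tested at 10 µM. Higher reads as fewer parasites (inferred from which compounds were picked for retests). Size under these conditions: about 67,000 compounds, about 260 of them at 50% or above in at least one test.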
MtTrpRS: 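Tryptophan-tRNA ligase, Mycobacterium tuberculosis (UniProt P9WFT3). Enzyme assay of tryptophanyl-tRNA synthetase; the read-out is not stated. Compounds at 10 µM. Higher most likely means stronger inhibition; the record gives no direction and few retests gave an IC50. Of about 65,000 compounds tested this way, about 64 (0.098%) reached 50% or more in at least one test.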
Pks13 thioesterase: 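Polyketide synthase Pks13, Mycobacterium tuberculosis (UniProt I6X8D2). Enzyme assay of the thioesterase domain of polyketide synthase 13; the read-out is not stated. Tested at 30 µM. Higher reads as stronger inhibition (inferred from which compounds were picked for retests). Size under these conditions: about 67,000 compounds, about 300 of them at 50% or above in at least one test.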

Each number is a percent effect as filed. The controls that fix the scale are not given in the record; negative values are as filed. The compounds are a random part of those screened.

Result for CN1CCN(C(=O)[C@H]2C[C@H]3[C@H](CCN3Cc3nccs3)O2)CC1 was CoaBC: 0.9412%; PfKRS1: 2.881%; MtTrpRS: -7.463%; Pks13 thioesterase: -17.5%.
Result for Cc1ccc(CN2CCCC3(CCCC(=O)N3C)C2)s1.O=C(O)C(F)(F)F (centres undefined) was Toxoplasma: 24.16%.
Result for CC(C)N1CCCC1c1cc(CO)[nH]n1 (centres undefined) was CoaBC: -0.5256%; PfKRS1: -0.4695%; MtTrpRS: -7.049%; Pks13 thioesterase: -4.158%.
Result for O=C(NC1CCC1)[C@@H]1CCO[C@@H]2CCN(C3CCCC3)C[C@H]21 was CoaBC: 0.6515%; PfKRS1: -0.2349%; MtTrpRS: 0%; Pks13 thioesterase: -24.65%.
Result for O=C(C1CCS(=O)(=O)CC1)N1CCC(c2ccc(F)cc2)C1 (centres undefined) was CoaBC: 2.823%; PfKRS1: 0.1133%; Toxoplasma: -5.398%; MtTrpRS: 5.094%; Pks13 thioesterase: 1.524%.
Result for COc1ccc(-c2cc(C(=O)NCCCn3ccnc3C)n(C)n2)cc1 was CoaBC: 4.662%; PfKRS1: 0.1831%; Toxoplasma: 9.432%; MtTrpRS: -4.762%; Pks13 thioesterase: 15.36%.
Result for O=C(O)C(F)(F)F.[H][C@@]12CCN(Cc3ccc(C)s3)C[C@]1(COC)CCO2 was Toxoplasma: 23.33%.
Result for CN(C)CC(=O)N1Cc2nnn(C)c2C(COCC2CC2)C1 (centres undefined) was CoaBC: 4.68%; PfKRS1: 6.077%; Toxoplasma: -52.21%; MtTrpRS: -8.749%; Pks13 thioesterase: -13.65%.
Result for Cc1ccc(C(CNCc2cccnc2)N2CCOCC2)s1 (centres undefined) was CoaBC: 1.19%; PfKRS1: 4.886%; Toxoplasma: -1.125%; MtTrpRS: -1.652%; Pks13 thioesterase: -13.76%.
Result for COC(=O)c1sc(C(NC(=O)c2ccccc2)C2CC2)nc1C (centres undefined) was CoaBC: 1.703%; PfKRS1: 2.018%; Toxoplasma: -12.29%; MtTrpRS: -2.251%; Pks13 thioesterase: 17.14%.
Result for Cc1ccc(NC2CCN(C(=O)c3c(C)oc(C)c3C)CC2)nn1 was CoaBC: 3.581%; PfKRS1: 2.402%; Toxoplasma: 1.749%; MtTrpRS: -3.328%; Pks13 thioesterase: -10.03%.
Result for O=c1[nH]nc(CCCN2CCOCC2)n1Cc1cccc(F)c1 was CoaBC: -1.728%; PfKRS1: 7.475%; Toxoplasma: -14.92%; MtTrpRS: -6.108%; Pks13 thioesterase: -29.46%.
Result for O=C(CCc1cccc(F)c1F)N1CCCC(n2cncn2)C1 (centres undefined) was CoaBC: 12.72%; PfKRS1: 1.546%; Toxoplasma: -12.37%; MtTrpRS: -5.814%; Pks13 thioesterase: 2.081%.
Result for Cc1cc(CC(=O)NCc2ccnc(OCC(F)(F)F)c2)no1 was CoaBC: -0.266%; PfKRS1: -3.48%; Toxoplasma: -35.99%; MtTrpRS: -1.258%; Pks13 thioesterase: -20.82%.
Result for COC(=O)c1cccc(C2CNCCN2C(C)=O)c1 (centres undefined) was CoaBC: 2.632%; PfKRS1: -1.153%; Toxoplasma: 19.77%; MtTrpRS: 7.552%; Pks13 thioesterase: -3.004%.
Result for Cc1cccc2sc(NC(=O)CN3CCCC(O)(CO)C3)nc12 (centres undefined) was CoaBC: -1.24%; PfKRS1: 3.247%; Toxoplasma: -0.05917%; MtTrpRS: 8.221%.
Result for O=C(O)C(F)(F)F.[H][C@]12CC[C@@]3(N=C(CC)N(CC)C3=O)[C@@]1([H])CN(CC1CC1)C2 was Toxoplasma: 0.6711%.
Result for CCOC(=O)CC1(Nc2nc(C)nc3c2cnn3C)CCCCC1 was CoaBC: 7.654%; PfKRS1: 7.133%; Toxoplasma: -8.168%; MtTrpRS: 2.907%; Pks13 thioesterase: -1.636%.
Result for CNC(=O)C1(CCCc2ccncc2)CCCCN1.Cl (centres undefined) was Toxoplasma: 1.897%.

The first 2 entries again:

* CN1CCN(C(=O)[C@H]2C[C@H]3[C@H](CCN3Cc3nccs3)O2)CC1 | CoaBC: 0.9412%; PfKRS1: 2.881%; MtTrpRS: -7.463%; Pks13 thioesterase: -17.5%
* Cc1ccc(CN2CCCC3(CCCC(=O)N3C)C2)s1.O=C(O)C(F)(F)F (centres undefined) | Toxoplasma: 24.16%